# Over roughly 33,000 sequences, “E-score (-0.5 to 0.5)” has its median near -0.0059; the highest 2% begin near 0.26. This is one part of the list.
# Biological target: T1, Cin5 (UniProt P40917)
# T1 sequence: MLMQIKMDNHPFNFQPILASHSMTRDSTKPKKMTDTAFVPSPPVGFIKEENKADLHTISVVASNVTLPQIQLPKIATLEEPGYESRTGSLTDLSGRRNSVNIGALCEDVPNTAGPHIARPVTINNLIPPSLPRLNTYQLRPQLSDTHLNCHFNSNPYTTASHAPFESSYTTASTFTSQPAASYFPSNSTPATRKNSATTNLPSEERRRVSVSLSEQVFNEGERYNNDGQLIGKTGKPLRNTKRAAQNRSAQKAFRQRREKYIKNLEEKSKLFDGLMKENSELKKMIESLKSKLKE
# Assay: PBM E-score (8-mer binding enrichment) (E-score (-0.5 to 0.5)); higher = stronger / more preferred TF binding
# Conditions: protein concentration: 100 nM; construct: GST-full length
# Description: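 Universal 'all 10-mer' protein binding microarrays (Agilent AMADID 015681) probed with GST-tagged S. cerevisiae TFs (full-length or DBD) made by in vitro transcription/translation (PURExpress), about 100-200 nM. Bound TF was detected with fluorescent anti-GST. Each ungapped 8-mer (which stands for itself and its reverse complement) is scored by the PBM enrichment score (E-score), a modified Wilcoxon-Mann-Whitney statistic from -0.5 to +0.5, computed with the Universal PBM Analysis Suite. Scale: above 0.35 generally sequence-specific binding.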
row,Sequence,PBM E-score
1,GTGACCAC,-0.153
2,CCTAGACC,-0.0746
3,CTACCATA,0.0559
4,TAGCAAAA,0.019
5,CCCGTGGA,-0.111
6,GAGGAACA,-0.0449
7,CCCCCCAA,-0.456
8,CCGCCGTA,-0.047
9,GCGCCTAC,0.0746
10,CTGTGACC,0.0399
11,ACACGCAT,-0.0266
12,CACCAAAC,0.12
13,ATGCGCTG,-0.0401
14,ATTACTTG,0.202
15,GATCCTTA,-0.0238
16,CTGGATCC,0.019
17,AGAAGGCG,-0.121
18,GGGTGGGA,0.141
19,AATACGGT,-0.0563
20,GAACTCTC,-0.0674
21,GGAAGACA,-0.0332
22,AATACCAT,0.213
23,TAGTCATA,0.0307
24,CATGTAAA,-0.054
25,ACTATTAG,0.147

row,Sequence,PBM E-score
1,AAAAGGTA,0.00489
2,ACTCCGAA,-0.102
3,ATAAAGAA,0.142
4,CACCAAAA,0.152
5,AGGAGTGG,-0.145
6,CACTAGGC,0.0487
7,TCTGGTCA,0.0296
8,AACACTGC,0.196
9,ACTACGGA,0.0361
10,ATTCAAGC,0.127
11,ATCGGTAG,-0.0982
12,ACCAGGGC,-0.317
13,CAATCATA,0.201
14,TAAGGGCA,-0.0783
15,GATAAAAC,0.198
16,TACCCGGA,0.0801
17,CCGAGTCA,-0.0645
18,AGTCAGCC,0.161
19,CCAATGGC,-0.078
20,CATGAATC,0.0129
21,AATCGTAA,0.25
22,CCAGCATC,-0.117
23,CGCTTGTC,0.00216
24,GAGACCGC,-0.281
25,GTGCTGTA,-0.176

# Seven entries from above, bar-delimited.
row | Sequence | PBM E-score
2 | ACTCCGAA | -0.102
8 | AACACTGC | 0.196
11 | ATCGGTAG | -0.0982
16 | TACCCGGA | 0.0801
20 | CATGAATC | 0.0129
22 | CCAGCATC | -0.117
25 | GTGCTGTA | -0.176

# (next part)

row,Sequence,PBM E-score
1,CTACCCCA,0.1
2,CTGATCTA,0.0193
3,ACCGCTCT,-0.072
4,AGCAGCGG,-0.174
5,ATGGCTCC,-0.0762
6,CCCGGTCG,-0.216
7,GGACGACC,-0.248
8,CAGCAACG,0.177
9,AGCTAGAA,-0.0472
10,AGCTGAGA,0.00079
11,AAACGTTC,0.0637
12,GAGGCTCC,-0.142
13,TAAAGTTA,0.179
14,CCGCGACC,-0.158
15,AAATTGCC,0.0903
16,AGCCACGC,-0.0802
17,ATAGTTTG,0.156
18,AAGTTCCA,-0.0879
19,CAAGGGCC,-0.343
20,GCGGTTTA,0.0493
21,ATGCGATA,-0.0194
22,ATGCGAGG,0.112
23,AATCCTAG,-6e-05
24,GCCTTGAA,-0.248
25,CCCGCAGA,0.0741

# As a short view, part of the list above:
row,Sequence,PBM E-score
8,CAGCAACG,0.177
9,AGCTAGAA,-0.0472
10,AGCTGAGA,0.00079

# Next records.

row,Sequence,PBM E-score
1,TCTACACA,0.02
2,AAAACCCC,-0.0498
3,TCCCCCCA,-0.382
4,CAAATGAA,-0.0217
5,TACCTTGA,0.0677
6,AATTATAA,0.223
7,ATACCGAT,-0.0406
8,TAAGAAGA,0.122
9,AAAGATGC,0.00202
10,ACCATACT,0.101
11,CGACTCCC,-0.223
12,CCACGCAG,-0.0201
13,GCGAACCA,0.026
14,ATGAAAGG,-0.0513
15,GAGGCGCA,-0.0676
16,GTATAAAC,0.26
17,AAGTGCGC,0.0534
18,GGAGCCTA,-0.101
19,CATAAGAA,0.249
20,CTAATAGC,-0.0367
21,AAATAGGC,0.0476
22,ATGTCAAG,0.0514
23,AGTATGGG,0.0513
24,GAAGACCC,-0.0954
25,TAAATGGA,0.111

row,Sequence,PBM E-score
1,CCCAAATA,0.0294
2,ACCGTTGC,-0.105
3,CGAGCTAC,-0.0208
4,TACGGTCA,0.0745
5,AGGTTGCG,-0.173
6,ATGCGATC,-0.0177
7,GGAGGTCA,-0.244
8,AGGACCAT,-0.157
9,CATTAATC,0.118
10,AAACATAC,0.0238
11,AGTCCTAC,-0.0757
12,GATCATAA,0.241
13,TCGCGGCA,-0.106
14,CCTACGGC,-0.208
15,CACGACTG,-0.206
16,GGAAAGTA,0.164
17,AACTGTGA,0.0987
18,CCCGTCAG,-0.138
19,ACCCCTCA,0.0974
20,TCACGGGA,0.108
21,AGATACAT,0.171
22,TGACAAAA,0.165
23,TGCGCCCA,-0.11
24,ACCTTCGA,-0.116
25,GGACAACA,0.117

row,Sequence,PBM E-score
1,ACACGACT,-0.156
2,CATCGCAA,-0.0853
3,GAACCTGA,-0.00532
4,CAGCTTAA,0.0109
5,AACTTCAA,0.0253
6,CTACGCGA,-0.096
7,ATAAAACC,0.139
8,GTGAAATA,0.0495
9,ATAAGAGA,0.16
10,CATGACAG,-0.0563
11,ATACATAG,0.159
12,AACCAATC,0.194
13,TGGACCCA,-0.0652
14,AAGCGAGC,0.18
15,GGACACCC,-0.226
16,GCAAGCGC,-0.017
17,ACGAAAGT,0.133
18,AAATGAGT,0.21
19,ATACTCTA,0.0717
20,AACCCGTC,-0.116
21,GCAGTAAC,-0.237
22,GTCGCCGA,-0.117
23,ACTTCAAC,-0.00633
24,AAAAACTA,0.0786
25,GAGACACA,0.00028

row,Sequence,PBM E-score
1,AGAACCGC,0.117
2,AGACACTC,-0.111
3,CTTAGTCC,-0.117
4,TCACTAGA,0.12
5,TACCGCTA,0.0715
6,TAGCCGAA,0.0339
7,CGTGTGGA,-0.0783
8,CAGTAATG,0.0733
9,CGTTATAC,-0.0892
10,CCTCGGCC,-0.0813
11,ACACCCAC,0.144
12,CAAATAAG,-0.086
13,AGTAACTA,0.149
14,ATTAGATG,0.239
15,CATTCAAC,-0.0112
16,TAAGGGAA,-0.079
17,CATCCGGC,-0.0699
18,TTAAAGAA,-0.00642
19,GTGGTCCA,0.0011
20,GTGCATAA,-0.0377
21,ACCATGAA,0.121
22,ACCAAACT,0.133

# Source: the supplement of paper PMC3334620
